Results deposited as PubChem BioAssay AID1508597 (Cure First, 2020)

Screen: 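Genes whose silencing sensitises or protects ovarian cancer cells against rucaparib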 (primary screen)
System: human ovarian carcinoma lines grown from tumours: OCI-P5x (papillary serous) and OCI-C5x (clear cell)
Reagent: siRNA pool against human genes, 1.25 pmol siRNA per well
Duration: 72 h or 96 h, depending on the cell culture
Challenge: rucaparib 20 µM (about IC30) or vehicle, present until read-out
Measurement: 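Luminescent ATP-based viability assay read 72 or 96 h after transfection, depending on culture, given as normalised percent viability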
Reading the numbers: viability, normalised: higher = more viable cells remaining
Hit rule: 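a well counts as a hit if its normalised viability is under 80 percent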
Calls: active = viability under 80%; inactive = viability 80% or more
This is a random part of about 2,100 deposited reagents. 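Calls flag viability under 80% in either arm, not effects specific to rucaparib; the reference for percent is not stated.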 No sequences are given here. The record does not give: the 100% reference.

The first 7 records, to show the layout:
viability, normalised (%)	Outcome	gene	rucaparib or vehicle	cell line	technical replicate
36.1	active	PDPK1 (GeneID 5170)	Rucaparib	OCI-C5x (clear cell)	1
48.1	active	PDPK1 (GeneID 5170)	Rucaparib	OCI-C5x (clear cell)	2
48.5	active	PDPK1 (GeneID 5170)	Rucaparib	OCI-C5x (clear cell)	3
112	inactive	PDPK1 (GeneID 5170)	Rucaparib	OCI-P5x (serous)	1
115	inactive	PDPK1 (GeneID 5170)	Rucaparib	OCI-P5x (serous)	2
77.6	active	PDPK1 (GeneID 5170)	Rucaparib	OCI-P5x (serous)	3
101	inactive	PDPK1 (GeneID 5170)	Vehicle	OCI-C5x (clear cell)	1

Results, from the first entry:
viability, normalised (%)	Outcome	gene	rucaparib or vehicle	cell line	technical replicate
36.1	active	PDPK1 (GeneID 5170)	Rucaparib	OCI-C5x (clear cell)	1
48.1	active	PDPK1 (GeneID 5170)	Rucaparib	OCI-C5x (clear cell)	2
48.5	active	PDPK1 (GeneID 5170)	Rucaparib	OCI-C5x (clear cell)	3
112	inactive	PDPK1 (GeneID 5170)	Rucaparib	OCI-P5x (serous)	1
115	inactive	PDPK1 (GeneID 5170)	Rucaparib	OCI-P5x (serous)	2
77.6	active	PDPK1 (GeneID 5170)	Rucaparib	OCI-P5x (serous)	3
101	inactive	PDPK1 (GeneID 5170)	Vehicle	OCI-C5x (clear cell)	1
70.6	active	PDPK1 (GeneID 5170)	Vehicle	OCI-C5x (clear cell)	2
64.7	active	PDPK1 (GeneID 5170)	Vehicle	OCI-C5x (clear cell)	3
90.8	inactive	PDPK1 (GeneID 5170)	Vehicle	OCI-P5x (serous)	1
86.2	inactive	PDPK1 (GeneID 5170)	Vehicle	OCI-P5x (serous)	2
88.4	inactive	PDPK1 (GeneID 5170)	Vehicle	OCI-P5x (serous)	3
34.8	active	PCBD1 (GeneID 5092)	Rucaparib	OCI-C5x (clear cell)	1
52	active	PCBD1 (GeneID 5092)	Rucaparib	OCI-C5x (clear cell)	2
36.6	active	PCBD1 (GeneID 5092)	Rucaparib	OCI-C5x (clear cell)	3
92.4	inactive	PCBD1 (GeneID 5092)	Rucaparib	OCI-P5x (serous)	1
75.5	active	PCBD1 (GeneID 5092)	Rucaparib	OCI-P5x (serous)	2
105	inactive	PCBD1 (GeneID 5092)	Rucaparib	OCI-P5x (serous)	3
106	inactive	PCBD1 (GeneID 5092)	Vehicle	OCI-C5x (clear cell)	1
53.9	active	PCBD1 (GeneID 5092)	Vehicle	OCI-C5x (clear cell)	2
50	active	PCBD1 (GeneID 5092)	Vehicle	OCI-C5x (clear cell)	3
71	active	PCBD1 (GeneID 5092)	Vehicle	OCI-P5x (serous)	1
73.8	active	PCBD1 (GeneID 5092)	Vehicle	OCI-P5x (serous)	2
83.4	inactive	PCBD1 (GeneID 5092)	Vehicle	OCI-P5x (serous)	3
39.9	active	RPL11 (GeneID 6135)	Rucaparib	OCI-C5x (clear cell)	1
46.1	active	RPL11 (GeneID 6135)	Rucaparib	OCI-C5x (clear cell)	2
38.9	active	RPL11 (GeneID 6135)	Rucaparib	OCI-C5x (clear cell)	3
57.9	active	RPL11 (GeneID 6135)	Rucaparib	OCI-P5x (serous)	1
65.4	active	RPL11 (GeneID 6135)	Rucaparib	OCI-P5x (serous)	2
60.5	active	RPL11 (GeneID 6135)	Rucaparib	OCI-P5x (serous)	3
29.6	active	RPL11 (GeneID 6135)	Vehicle	OCI-C5x (clear cell)	1
35.5	active	RPL11 (GeneID 6135)	Vehicle	OCI-C5x (clear cell)	2
34.6	active	RPL11 (GeneID 6135)	Vehicle	OCI-C5x (clear cell)	3
45.7	active	RPL11 (GeneID 6135)	Vehicle	OCI-P5x (serous)	1
45.1	active	RPL11 (GeneID 6135)	Vehicle	OCI-P5x (serous)	2
35.4	active	RPL11 (GeneID 6135)	Vehicle	OCI-P5x (serous)	3
14.4	active	PARP15 (GeneID 165631)	Rucaparib	OCI-C5x (clear cell)	1
13.7	active	PARP15 (GeneID 165631)	Rucaparib	OCI-C5x (clear cell)	2
21.2	active	PARP15 (GeneID 165631)	Rucaparib	OCI-C5x (clear cell)	3
28.8	active	PARP15 (GeneID 165631)	Rucaparib	OCI-P5x (serous)	1
33.6	active	PARP15 (GeneID 165631)	Rucaparib	OCI-P5x (serous)	2
31.9	active	PARP15 (GeneID 165631)	Rucaparib	OCI-P5x (serous)	3
18.6	active	PARP15 (GeneID 165631)	Vehicle	OCI-C5x (clear cell)	1
17.5	active	PARP15 (GeneID 165631)	Vehicle	OCI-C5x (clear cell)	2
20.9	active	PARP15 (GeneID 165631)	Vehicle	OCI-C5x (clear cell)	3
38.7	active	PARP15 (GeneID 165631)	Vehicle	OCI-P5x (serous)	1
29.6	active	PARP15 (GeneID 165631)	Vehicle	OCI-P5x (serous)	2
56.2	active	PARP15 (GeneID 165631)	Vehicle	OCI-P5x (serous)	3
53.6	active	RIOK1 (GeneID 83732)	Rucaparib	OCI-C5x (clear cell)	1
50.5	active	RIOK1 (GeneID 83732)	Rucaparib	OCI-C5x (clear cell)	2
66	active	RIOK1 (GeneID 83732)	Rucaparib	OCI-C5x (clear cell)	3
125	inactive	RIOK1 (GeneID 83732)	Rucaparib	OCI-P5x (serous)	1
115	inactive	RIOK1 (GeneID 83732)	Rucaparib	OCI-P5x (serous)	2
95.9	inactive	RIOK1 (GeneID 83732)	Rucaparib	OCI-P5x (serous)	3
57.2	active	RIOK1 (GeneID 83732)	Vehicle	OCI-C5x (clear cell)	1
54.5	active	RIOK1 (GeneID 83732)	Vehicle	OCI-C5x (clear cell)	2
58.8	active	RIOK1 (GeneID 83732)	Vehicle	OCI-C5x (clear cell)	3
89.1	inactive	RIOK1 (GeneID 83732)	Vehicle	OCI-P5x (serous)	1
82.6	inactive	RIOK1 (GeneID 83732)	Vehicle	OCI-P5x (serous)	2
73.3	active	RIOK1 (GeneID 83732)	Vehicle	OCI-P5x (serous)	3
